Screen size: about 53,000 sequences; about 3,700 (7%) were called active.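 How the source made its calls: active means gene knockdowns whose robust z-score for IL-1 alpha signal is at least 2 or at most -2, so actives lie on both sides; inactive means the rest.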 The list shows a part of the results.
Experiment: Components of the Cytosolic LPS Sensing Pathway: Gene Identification via Genome-wide siRNA Screen;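 further: robust z of the log signal after scaling to non-targeting control siRNA wells of the plate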
Conditions: RAW264.7 macrophages, IL-1a HTRF, actives lie on both sides, screened at 100 nM (by protocol), cells primed 5 h with Pam3CSK4 first
Summary of the method: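 Mouse macrophage line RAW264.7 is transfected with siRNA (100 nM final), grown 48h, primed with TLR ligand Pam3CSK4 5 h and given intracellular LipidA 24 h. IL-1a in supernatant is read by HTRF and viability by luminescence.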

Sequence	z-score
GCUCAUUCCAGGUAUCUGATT against Fcna	inactive: -1.19
GGCUAAGUAGACAGGUUUUTT against Olfr1288	inactive: 1.11
CCACGACAUUCCAGAAAGGTT against Gimap6	inactive: 1.29
GGAUGUUGUCCAUACUGUATT against Zfp36l2	inactive: -0.941
GGGAAAAGCACAGAGCUGATT against Tk1	inactive: -1.23
GUGUACGUCUGUUAACACATT against Dad1	active: -2.1
GGCUGUUUUACAUCAUCCCTT against Ust	inactive: -0.227
CCCUGAAGUGUAACUUCAATT against Igsf21	inactive: 0.7
GCCUGAGAAACAUUCGGCATT against H2-T24	inactive: -0.248
CAACCGUUGUGGCCAUGACTT against Olfr59	inactive: -0.332
GCCUAAAGCUUUUCUACAATT against Mlph	inactive: 0.161
GGUGCGUCCUGAAAUCAUCTT against Txndc12	active: -2.52
GCAAAAAGUGGAAUACUAUTT against Peak1	inactive: 0.683
GCUGGUGAAUGCGACCUUUTT against Tm4sf5	inactive: -0.748
CCGUAUCACGCACUUAGUUTT against Pxdn	inactive: -0.0096
GCCGUGCGAUUUAAUGUGGTT against Wdr83	inactive: 0.172
GGUGUCGAUGUCCUUUAUGTT against Zc3hav1l	inactive: -1.05
GCGACAUCUUACUUGAAAGTT against Fbxl3	inactive: 0.0735
GGCAAUGCUAAAUAUUUGCTT against Ndor1	inactive: -0.0137
GGAAUUGAUUCUCUUCUCATT against Top2b	inactive: -1.32
GCAAGCUGUUUGUUCCAAUTT against Gtf3c4	inactive: 0.814
GGCAUCAAAGUGACAGAUGTT against Cdkn2aip	inactive: -0.0529

Sequence	z-score
GGAAAACCUUGUUCAAAGUTT against Srxn1	inactive: -0.0632
GGAAUAAGUCCUAUGAAUCTT against Fyttd1	inactive: 0.792
GGAUAGAACACUUUCUUUUTT against Gk	inactive: -0.0178
GGCGAUUGAGUUUGUUUUGTT against Rabggtb	inactive: 0.641
CCUCCAGAGUAUUGUCUAGTT against Ppfia3	inactive: 1.26
GGAGAUGAAGACAUGGGACTT against Sly	inactive: 0.558
GCAGUGUCGCAUUACAUCGTT against Sec16a	active: 3.45
GGAGGAGCAACCCAUGUCUTT against Akip1	inactive: 1.36
GGAUAGAGACUGCUGGGUUTT against Zfp579	inactive: 0.248
CGUAACCAAACCCUGGUUCTT against Ccnl1	inactive: 1.03
GACACUGUCAAAUUAUGGATT against Vmn1r74	inactive: -0.581
GCUUAACUACCUUAAAGACTT against Scn3a	inactive: 0.257
GGCUUCAAGGUGAAACUCUTT against Cryl1	inactive: -0.366
AGGGUCAUUCUGCUAUUCCTT against Taar7d	inactive: -1.09
GGUCUCCUACAAAAAGUAGTT against AA792892	inactive: -0.59
GGAGUUCUUCGUUUCCCGATT against Fbxw13	inactive: 0.952
GGAUACAAACUUAACUCAUTT against Znf41-ps	inactive: -1.48
GCAUAAAAUCAGUGAGGCCTT against Pus7	inactive: -0.126
GAAUGGUGAUAAGAAGCAUTT against Ndufb3	inactive: 0.366
GCUAUGCGUUCAGAAGUUGTT against Ap3d1	inactive: 0.497
CCUGCUAGGACUAAGUUAGTT against 4930548H24Rik	inactive: 1.06
GGCAUAAAAAGCAUAGUAGTT against Cstf2	inactive: -0.29

Part of the list above, as comma-separated lines.
Sequence,z-score
GCAAAAAGUGGAAUACUAUTT against Peak1,inactive: 0.683
GCUGGUGAAUGCGACCUUUTT against Tm4sf5,inactive: -0.748
CCGUAUCACGCACUUAGUUTT against Pxdn,inactive: -0.0096
GCCGUGCGAUUUAAUGUGGTT against Wdr83,inactive: 0.172
GGUGUCGAUGUCCUUUAUGTT against Zc3hav1l,inactive: -1.05
GCGACAUCUUACUUGAAAGTT against Fbxl3,inactive: 0.0735
GGCAAUGCUAAAUAUUUGCTT against Ndor1,inactive: -0.0137
GGAAUUGAUUCUCUUCUCATT against Top2b,inactive: -1.32
GCAAGCUGUUUGUUCCAAUTT against Gtf3c4,inactive: 0.814
GGCAUCAAAGUGACAGAUGTT against Cdkn2aip,inactive: -0.0529
GGAAAACCUUGUUCAAAGUTT against Srxn1,inactive: -0.0632
GGAAUAAGUCCUAUGAAUCTT against Fyttd1,inactive: 0.792
GGAUAGAACACUUUCUUUUTT against Gk,inactive: -0.0178
GGCGAUUGAGUUUGUUUUGTT against Rabggtb,inactive: 0.641
CCUCCAGAGUAUUGUCUAGTT against Ppfia3,inactive: 1.26
GGAGAUGAAGACAUGGGACTT against Sly,inactive: 0.558
GCAGUGUCGCAUUACAUCGTT against Sec16a,active: 3.45
GGAGGAGCAACCCAUGUCUTT against Akip1,inactive: 1.36
GGAUAGAGACUGCUGGGUUTT against Zfp579,inactive: 0.248
CGUAACCAAACCCUGGUUCTT against Ccnl1,inactive: 1.03
GACACUGUCAAAUUAUGGATT against Vmn1r74,inactive: -0.581
GCUUAACUACCUUAAAGACTT against Scn3a,inactive: 0.257
GGCUUCAAGGUGAAACUCUTT against Cryl1,inactive: -0.366
AGGGUCAUUCUGCUAUUCCTT against Taar7d,inactive: -1.09
GGUCUCCUACAAAAAGUAGTT against AA792892,inactive: -0.59
GGAGUUCUUCGUUUCCCGATT against Fbxw13,inactive: 0.952
GGAUACAAACUUAACUCAUTT against Znf41-ps,inactive: -1.48
GCAUAAAAUCAGUGAGGCCTT against Pus7,inactive: -0.126
GAAUGGUGAUAAGAAGCAUTT against Ndufb3,inactive: 0.366
GCUAUGCGUUCAGAAGUUGTT against Ap3d1,inactive: 0.497
CCUGCUAGGACUAAGUUAGTT against 4930548H24Rik,inactive: 1.06

Remaining list, next part.

Sequence	z-score
GGAAAAGAAGUUCAAUGGUTT against Riok3	inactive: -0.78
GGUGUUGCAUUCUUUCCUCTT against Dctn5	inactive: 0.855
GCCUUCUGUUAAGGUAAGATT against Fam120c	inactive: -1.85
GCGCAAGUCUCCAUUUGCATT against Kri1	inactive: 0.549
GGUCCCAGUGUCAUGUCUUTT against Cdipt	inactive: 1.58
GGGCAGAUUCCAACUCCUUTT against Cd33	inactive: -0.825
GGAGCUAGACAAAACUAAATT against Vmn2r81	inactive: -0.882
GCCAUUUGAAGUGUUUAAATT against Kctd12	inactive: -0.103
CCUUUACACGUAAAAGAAGTT against Zfp445	inactive: -0.194
GCCAGAGCUAGUUGAAUCCTT against Rce1	inactive: 1.14
GGGACAGGAACAAACAAGCTT against Polq	inactive: 2
CCCUUGAUUACACCACAGUTT against Cfc1	active: -2.6
GGUGUGGACUAUGAUACCATT against Anxa9	inactive: 0.984
GGAUUUGUAAGACUAAUCUTT against Xdh	inactive: 0.00453
CCGAAAACUUAUCUAGAAATT against BC023105	inactive: -0.846
CCACAUCUUACUACUGCAUTT against Th	inactive: 0.298
UCUGCUAAGCUGACCCUUUTT against Smim5	inactive: 1.71
GCAUGAUGGGUGGCAGAAUTT against Olfr978	inactive: -0.889
CCAGAGGUUAUUCAUUCAATT against Fastkd2	inactive: 0.65
CCACGUAUUGUUAGUAGAATT against Ei24	inactive: 0.251
GGAAAGUAAGACCGUAAGUTT against Ptrh2	inactive: 1.64
GGUUUUCAGUCACACAUCATT against Rab3gap1	inactive: 0.0866

Sequence	z-score
GCUUAACAACAGCAAGAACTT against Vmn1r217	inactive: -0.304
GGGAAGACAAGAACAACUUTT against Pitrm1	inactive: 0.756
CCUAUGUGUACUUCAUCCUTT against Elovl1	active: 2.93
CCAAUUAUUAUCCAAGGGCTT against Slc16a6	inactive: -0.0144
GGCACAUCUCCCUAACACUTT against Mvb12b	active: -2.02
CCUGAUAAUCCUUGUACCATT against Tepsin	inactive: -1.81
GGUCUUCUCCGAAAGUGAATT against Nceh1	inactive: -1.69
CGUCUGUUUUUGUGAAUUATT against Vmn1r209	inactive: -0.603
GGAGGAAGCUGAUGAGAAUTT against Stx4a	inactive: -1.03
CCACUCACAACAGUACUACTT against Tfap2d	inactive: -0.592
GGAAAUCUGCUUACUUUUGTT against Ppm1l	inactive: 0.371
GGAUCAGACACCUGUUUUATT against Pkhd1	inactive: 0.486
GGAUGUAUCUGGAGAAUUUTT against Cldnd1	inactive: 0.757
GGUGGUCACCAAGAAGUUUTT against Prps2	active: 2.52
CGAGGGAAUGCACUACAACTT against Chpf	active: 2.16
GGCUUUCAAUACGUGUGUCTT against Olfr15	inactive: -0.297
GGAUGCUGGACCAAAAUUGTT against 9330175E14Rik	inactive: -1.07
GCCUGUUACUGACUAUAACTT against Sppl2c	inactive: 0.717
GGAUGAAUUCAUUGAAGAATT against Btk	inactive: 0.321
GCCAGAUGAUUGUGCAUCCTT against Nfatc3	inactive: -0.312
CCUUAUGAUCCCAACUUUUTT against Hnrnpk	inactive: 0.0422
CCAGCGAGAAUGAAAUUCCTT against Notum	inactive: -1.35

Sequence	z-score
GGAAAUGGCAGGCAAGAUCTT against Gpr50	inactive: -0.506
CCAUCAGGGUUACAAGUACTT against 6030458C11Rik	active: -2.46
GGGUCCUAUUUAUUUAUGUTT against Cxcl1	inactive: 0.372
GGAUGAACGAGCUAUCGAGTT against Pdcl3	inactive: -0.221
GGACCAACAAUCCAGGAUUTT against Fam133b	inactive: 0.401
GGCUAAGGACUUGCCAACUTT against Pip4k2b	inactive: -1.37
CGAUUUUCUAACCUCGAGUTT against Dlx2	inactive: -0.515
GGAGUCAUUGACCAGAUAUTT against Psmd5	inactive: -0.68
GGGAAGUCUACAUAAAUCCTT against Gpr176	inactive: -0.544
GGAAUUCGUAAAGAUUGCATT against Esrp2	inactive: -0.158
GGUCUGGUCAUCUCAGUUUTT against Tmem159	active: 3.53
CCAUAUGGUAACCAAACCGTT against Ldb1	inactive: -0.896
GGAAAAGAGACUGAAGAAATT against Lhx3	inactive: -0.533
GGGUUUGCUCAUAAAAUAATT against 4933400A11Rik	inactive: -1.25
GGAAAGAGAGCUGAGCUUATT against Pla2g2a	inactive: -0.54
GCAGUAACUGUGUCAAAAUTT against Zan	inactive: 0.879
CCUUUUACUAGACACAGUCTT against Tmem35a	inactive: -1.26
GGUGUGUUUUCAUGUUUUUTT against Rel	inactive: 0.388
GCUGCAUGCGUAAAUAGAATT against Slc22a19	inactive: -0.38
